Measurements as given in doi:10.1101/2020.06.08.140590.
These are yes or no findings as the source states them, for the method shown. Binding seen in cells or lysates may run through a third protein. Some binding calls cover weakened binding; strength is not graded here. Blank lines part the entries; values can stand above or below the binder they belong to.

What was measured:
[1] = molecular target: HA-Ago1 (FLAG/HA-tagged Argonaute 1) (human) (UniProt Q9UL18); assay: co-IP
[2] = molecular target: HA-Ago2 (FLAG/HA-tagged Argonaute 2) (human), Q9UKV8; assay: co-IP; conditions: remark: other sources report otherwise

binding [1]: binds
B1: TRBP (TAR RNA binding protein), endogenous (protein, UniProt Q15633 1-366)
chain: MSEEEQGSGTTTGCGLPSIEQMLAANPGKTPISLLQEYGTRIGKTPVYDLLKAEGQAHQPNFTFRVTVGDTSCTGQGPSKKAAKHKAAEVALKHLKGGSMLEPALEDSSSFSPLDSSLPEDIPVFTAAAAATPVPSVVLTRSPPMELQPPVSPQQSECNPVGALQELVVQKGWRLPEYTVTQESGPAHRKEFTMTCRVERFIEIGSGTSKKLAKRNAAAKMLLRVHTVPLDARDGNEVEPDDDHFSIGVGSRLDGLRNRGPGCTWDSLRNSVGEKILSLRSCSLGSLGALGPACCRVLSELSEEQAFHVSYLDIEELSLSGLCQCLVELSTQPATVCHGSATTREAARGEAARRALQYLKIMAGSK

binding [2]: binds
B2: TRBP (TAR RNA binding protein), endogenous, Q15633 1-366 (protein)
chain: B1 chain
